Data from the supplement of paper PMC8728848.
This is one part of the list.

Columns and labels:
Assay in all cases: glycan array binding signal (z-score within array); higher = stronger binding
Conditions in all cases: glycan notation: IUPAC condensed, linker removed
[1] = target: Fuc(a1-2)[Gal(a1-3)]Gal(b1-4)GlcNAc(b1-2)Man(a1-3)[Fuc(a1-2)[Gal(a1-3)]Gal(b1-4)GlcNAc(b1-2)Man(a1-6)]Man(b1-4)GlcNAc(b1-4)GlcNAc
Outline: (§1)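 Glycan array binding is given as a within-array Z-score, which can be read as non-binding when negative. The arrays, 3228 of them, came from the Consortium for Functional Glycomics database and were retained only where the protein sequence was available. Z-scores were averaged across arrays of the same protein sequence at different concentrations or buffers and across linkers.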

[2] = target: Fuc(a1-2)[Gal(a1-3)]Gal(b1-4)GlcNAc(b1-2)Man(a1-3)[Fuc(a1-2)[Gal(a1-3)]Gal(b1-4)GlcNAc(b1-2)Man(a1-6)]Man(b1-4)GlcNAc(b1-4)[Fuc(a1-6)]GlcNAc
Outline: as §1

[3] = target: Fuc(a1-2)[Gal(a1-3)]Gal(b1-4)GlcNAc(b1-3)GalNAc
Outline: as §1

[4] = target: Fuc(a1-2)[Gal(a1-3)]Gal(b1-4)GlcNAc(b1-3)[Fuc(a1-2)[Gal(a1-3)]Gal(b1-4)GlcNAc(b1-6)]GalNAc
Outline: as §1

[5] = target: Fuc(a1-2)[Gal(a1-3)]Gal(b1-4)GlcNAc(b1-6)GalNAc
Outline: as §1

[6] = target: Fuc(a1-2)[Gal(a1-3)]Gal(b1-4)[Fuc(a1-3)]Glc
Outline: as §1

[7] = target: Fuc(a1-2)[Gal(a1-3)]Gal(b1-4)[Fuc(a1-3)]GlcNAc
Outline: as §1

[8] = target: Fuc(a1-2)[Gal(a1-3)]Gal(b1-4)[Fuc(a1-3)]GlcNAc(b1-3)GalNAc
Outline: as §1

[9] = target: Fuc(a1-2)[Gal(a1-4)]Gal(b1-4)GlcNAc
Outline: as §1

[10] = target: Fuc(a1-2)[GalNAc(a1-3)]Gal
Outline: as §1

[11] = target: Fuc(a1-2)[GalNAc(a1-3)]Gal(b1-3)GalNAc(a1-3)[Fuc(a1-2)]Gal(b1-4)GlcNAc
Outline: as §1

[12] = target: Fuc(a1-2)[GalNAc(a1-3)]Gal(b1-3)GalNAc(b1-3)Gal(a1-4)Gal(b1-4)Glc
Outline: as §1

[13] = target: Fuc(a1-2)[GalNAc(a1-3)]Gal(b1-3)GlcNAc
Outline: as §1

[14] = target: Fuc(a1-2)[GalNAc(a1-3)]Gal(b1-3)GlcNAc(b1-2)Man(a1-3)[Fuc(a1-2)[GalNAc(a1-3)]Gal(b1-3)GlcNAc(b1-2)Man(a1-6)]Man(b1-4)GlcNAc(b1-4)GlcNAc
Outline: as §1

[15] = target: Fuc(a1-2)[GalNAc(a1-3)]Gal(b1-3)GlcNAc(b1-2)Man(a1-3)[Fuc(a1-2)[GalNAc(a1-3)]Gal(b1-3)GlcNAc(b1-2)Man(a1-6)]Man(b1-4)GlcNAc(b1-4)[Fuc(a1-6)]GlcNAc
Outline: as §1

[16] = target: Fuc(a1-2)[GalNAc(a1-3)]Gal(b1-3)GlcNAc(b1-3)GalNAc
Outline: as §1

[17] = target: Fuc(a1-2)[GalNAc(a1-3)]Gal(b1-3)GlcNAc(b1-6)GalNAc
Outline: as §1

[18] = target: Fuc(a1-2)[GalNAc(a1-3)]Gal(b1-4)Glc
Outline: as §1

[19] = target: Fuc(a1-2)[GalNAc(a1-3)]Gal(b1-4)GlcNAc
Outline: as §1

[20] = target: Fuc(a1-2)[GalNAc(a1-3)]Gal(b1-4)GlcNAc(b1-2)Man
Outline: as §1

[21] = target: Fuc(a1-2)[GalNAc(a1-3)]Gal(b1-4)GlcNAc(b1-2)Man(a1-3)[Fuc(a1-2)[GalNAc(a1-3)]Gal(b1-4)GlcNAc(b1-2)Man(a1-6)]Man(b1-4)GlcNAc(b1-4)GlcNAc
Outline: as §1

[22] = target: Fuc(a1-2)[GalNAc(a1-3)]Gal(b1-4)GlcNAc(b1-2)Man(a1-3)[Fuc(a1-2)[GalNAc(a1-3)]Gal(b1-4)GlcNAc(b1-2)Man(a1-6)]Man(b1-4)GlcNAc(b1-4)[Fuc(a1-6)]GlcNAc
Outline: as §1

[23] = target: Fuc(a1-2)[GalNAc(a1-3)]Gal(b1-4)GlcNAc(b1-3)Gal(b1-4)GlcNAc
Outline: as §1

[24] = target: Fuc(a1-2)[GalNAc(a1-3)]Gal(b1-4)GlcNAc(b1-3)Gal(b1-4)GlcNAc(b1-3)Gal(b1-4)GlcNAc
Outline: as §1

[25] = target: Fuc(a1-2)[GalNAc(a1-3)]Gal(b1-4)GlcNAc(b1-3)GalNAc
Outline: as §1

[26] = target: Fuc(a1-2)[GalNAc(a1-3)]Gal(b1-4)GlcNAc(b1-3)[Fuc(a1-2)[GalNAc(a1-3)]Gal(b1-4)GlcNAc(b1-6)]GalNAc
Outline: as §1

[27] = target: Fuc(a1-2)[GalNAc(a1-3)]Gal(b1-4)GlcNAc(b1-6)GalNAc
Outline: as §1

[28] = target: Fuc(a1-2)[GalNAc(a1-3)]Gal(b1-4)[Fuc(a1-3)]GlcNAc
Outline: as §1

[29] = target: Fuc(a1-2)[GalNAc(a1-3)]Gal(b1-4)[Fuc(a1-3)]GlcNAc(b1-3)GalNAc
Outline: as §1

[30] = target: Fuc(a1-2)[GalNAc(a1-4)]Gal(b1-4)GlcNAc
Outline: as §1

[31] = target: Fuc(a1-2)[GalNAc(b1-3)]Gal
Outline: as §1

[32] = target: Fuc(a1-3)GlcNAc
Outline: as §1

[33] = target: Fuc(a1-3)[Gal(b1-4)]Glc6S
Outline: as §1

[34] = target: Fuc(a1-3)[Gal(b1-4)]GlcNAc
Outline: as §1

[35] = target: Fuc(a1-3)[Gal(b1-4)]GlcNAc(b1-2)Man
Outline: as §1

[36] = target: Fuc(a1-3)[Gal(b1-4)]GlcNAc(b1-2)Man(a1-3)[Fuc(a1-3)[Gal(b1-4)]GlcNAc(b1-2)Man(a1-6)]Man(b1-4)GlcNAc(b1-4)GlcNAc
Outline: as §1

[37] = target: Fuc(a1-3)[Gal(b1-4)]GlcNAc(b1-2)Man(a1-3)[Fuc(a1-3)[Gal(b1-4)]GlcNAc(b1-2)Man(a1-6)]Man(b1-4)GlcNAc(b1-4)[Fuc(a1-6)]GlcNAc
Outline: as §1

[38] = target: Fuc(a1-3)[Gal(b1-4)]GlcNAc(b1-3)Gal(b1-3)[Fuc(a1-4)]GlcNAc
Outline: as §1

[39] = target: Fuc(a1-3)[Gal(b1-4)]GlcNAc(b1-3)Gal(b1-4)[Fuc(a1-3)]GlcNAc
Outline: as §1

[40] = target: Fuc(a1-3)[Gal(b1-4)]GlcNAc(b1-3)Gal(b1-4)[Fuc(a1-3)]GlcNAc(b1-3)Gal(b1-4)[Fuc(a1-3)]GlcNAc
Outline: as §1

[41] = target: Fuc(a1-3)[Gal(b1-4)]GlcNAc(b1-3)GalNAc
Outline: as §1

[42] = target: Fuc(a1-3)[Gal(b1-4)]GlcNAc(b1-6)GalNAc
Outline: as §1

[43] = target: Fuc(a1-3)[Gal(b1-4)]GlcNAc(b1-6)[Gal(b1-3)GlcNAc(b1-3)]Gal(b1-4)Glc
Outline: as §1

[44] = target: Fuc(a1-3)[Gal(b1-4)]GlcNAc6S
Outline: as §1

[45] = target: Fuc(a1-3)[Gal3S(b1-4)]Glc
Outline: as §1

[46] = target: Fuc(a1-3)[Gal3S(b1-4)]GlcNAc
Outline: as §1

[47] = target: Fuc(a1-3)[Gal3S(b1-4)]GlcNAc6S
Outline: as §1

[48] = target: Fuc(a1-3)[GalNAc(b1-4)]GlcNAc
Outline: as §1

[49] = target: Fuc(a1-3)[GalNAc(b1-4)]GlcNAc6S
Outline: as §1

[50] = target: Fuc(a1-4)GlcNAc
Outline: as §1

[51] = target: Fuc(b1-3)GlcNAc
Outline: as §1

[52] = target: Gal(a1-2)Gal
Outline: as §1

[53] = target: Gal(a1-3)Gal
Outline: as §1

[54] = target: Gal(a1-3)Gal(b1-3)GlcNAc
Outline: as §1

[55] = target: Gal(a1-3)Gal(b1-3)GlcNAc(b1-2)Man
Outline: as §1

[56] = target: Gal(a1-3)Gal(b1-3)GlcNAc(b1-2)Man(a1-3)[Gal(a1-3)Gal(b1-3)GlcNAc(b1-2)Man(a1-6)]Man(b1-4)GlcNAc(b1-4)GlcNAc
Outline: as §1

[57] = target: Gal(a1-3)Gal(b1-3)GlcNAc(b1-3)GalNAc
Outline: as §1

[58] = target: Gal(a1-3)Gal(b1-3)GlcNAc(b1-6)GalNAc
Outline: as §1

[59] = target: Gal(a1-3)Gal(b1-3)[Fuc(a1-4)]GlcNAc(b1-2)Man(a1-3)[Gal(a1-3)Gal(b1-3)[Fuc(a1-4)]GlcNAc(b1-2)Man(a1-6)]Man(b1-4)GlcNAc(b1-4)GlcNAc
Outline: as §1

[60] = target: Gal(a1-3)Gal(b1-4)Glc
Outline: as §1

B1: Epa2 (Candida glabrata) (protein)
chain: MGSSHHHHHHSSGLVPRGSHMASSKDPTSFPMGCSPQVLKTQPGLAVKLYSYGHPVPGCAYNTYQYPDFPRSGYKKERKLADITGVNGRIDIDLKPNDPCRVLSGNLPSNYNYQNTLTYTNFTMILYGYFQPKVTGYHTFNLEADDLLFMNLGAGNAFDCCRAESTLDNFGNYQSYSIWGTDKATADLTVFLVSGIYYPIRLFYVNRDNNAVLDFSFSTEFNKEIIHDFTSYFFSASDEEQCPGNI
glycan array binding signal (z-score) [1]: -0.732
glycan array binding signal (z-score) [2]: -0.432
glycan array binding signal (z-score) [3]: -0.942
glycan array binding signal (z-score) [4]: 1.17
glycan array binding signal (z-score) [5]: 0.366
glycan array binding signal (z-score) [6]: -0.56
glycan array binding signal (z-score) [7]: 0.294
glycan array binding signal (z-score) [8]: -0.606
glycan array binding signal (z-score) [9]: 0.493
glycan array binding signal (z-score) [10]: -0.479
glycan array binding signal (z-score) [11]: -0.153
glycan array binding signal (z-score) [12]: -0.252
glycan array binding signal (z-score) [13]: -0.076
glycan array binding signal (z-score) [14]: -0.78
glycan array binding signal (z-score) [15]: -0.638
glycan array binding signal (z-score) [16]: 0.267
glycan array binding signal (z-score) [17]: -0.678
glycan array binding signal (z-score) [18]: -0.646
glycan array binding signal (z-score) [19]: -0.115
glycan array binding signal (z-score) [20]: -1.24
glycan array binding signal (z-score) [21]: 0.144
glycan array binding signal (z-score) [22]: -0.26
glycan array binding signal (z-score) [23]: -0.172
glycan array binding signal (z-score) [24]: 1.9
glycan array binding signal (z-score) [25]: -0.64
glycan array binding signal (z-score) [26]: -0.154
glycan array binding signal (z-score) [27]: -1.01
glycan array binding signal (z-score) [28]: -0.129
glycan array binding signal (z-score) [29]: 4.26
glycan array binding signal (z-score) [30]: -0.721
glycan array binding signal (z-score) [31]: -0.637
glycan array binding signal (z-score) [32]: 0.379
glycan array binding signal (z-score) [33]: 0.453
glycan array binding signal (z-score) [34]: -0.543
glycan array binding signal (z-score) [35]: -1.15
glycan array binding signal (z-score) [36]: -0.156
glycan array binding signal (z-score) [37]: -0.153
glycan array binding signal (z-score) [38]: -0.341
glycan array binding signal (z-score) [39]: -0.109
glycan array binding signal (z-score) [40]: -1.39
glycan array binding signal (z-score) [41]: 0.659
glycan array binding signal (z-score) [42]: 2.23
glycan array binding signal (z-score) [43]: -0.228
glycan array binding signal (z-score) [44]: 1.09
glycan array binding signal (z-score) [45]: 0.905
glycan array binding signal (z-score) [46]: -0.168
glycan array binding signal (z-score) [47]: -0.922
glycan array binding signal (z-score) [48]: 0.253
glycan array binding signal (z-score) [49]: -0.523
glycan array binding signal (z-score) [50]: -0.255
glycan array binding signal (z-score) [51]: 0.001
glycan array binding signal (z-score) [52]: -1.68
glycan array binding signal (z-score) [53]: 0.044
glycan array binding signal (z-score) [54]: -0.18
glycan array binding signal (z-score) [55]: 0.508
glycan array binding signal (z-score) [56]: 1.71
glycan array binding signal (z-score) [57]: -0.007
glycan array binding signal (z-score) [58]: 0.247
glycan array binding signal (z-score) [59]: -0.479
glycan array binding signal (z-score) [60]: -0.079
